Results are given in words; binding and its absence hold for the method and conditions named. Binding seen in cells or lysates may run through a third protein. A yes stands for co-enrichment or nearness to the bait. Other partners may have been found.
Target: FLAG-ASF1A (doxycycline-inducible, stably integrated in MCF-7 cells) (UniProt Q9Y294)
Experiment: affinity purification with mass spectrometry; whole-cell extracts of MCF-7 cells with Dox-inducible FLAG-ASF1A on an anti-FLAG M2 column; washed with cold PBS plus 0.2% Nonidet P-40; eluted with FLAG peptide; silver-stained bands analysed by LC-MS/MS

Amino acid sequences for entries named in this document (tags omitted).
UniProt Q9Y294: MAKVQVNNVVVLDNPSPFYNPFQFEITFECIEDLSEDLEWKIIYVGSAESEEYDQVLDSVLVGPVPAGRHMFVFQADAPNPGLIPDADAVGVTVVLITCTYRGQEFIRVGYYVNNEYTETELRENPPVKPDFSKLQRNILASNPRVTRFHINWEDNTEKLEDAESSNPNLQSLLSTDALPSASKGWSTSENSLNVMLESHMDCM
UniProt Q9UER7: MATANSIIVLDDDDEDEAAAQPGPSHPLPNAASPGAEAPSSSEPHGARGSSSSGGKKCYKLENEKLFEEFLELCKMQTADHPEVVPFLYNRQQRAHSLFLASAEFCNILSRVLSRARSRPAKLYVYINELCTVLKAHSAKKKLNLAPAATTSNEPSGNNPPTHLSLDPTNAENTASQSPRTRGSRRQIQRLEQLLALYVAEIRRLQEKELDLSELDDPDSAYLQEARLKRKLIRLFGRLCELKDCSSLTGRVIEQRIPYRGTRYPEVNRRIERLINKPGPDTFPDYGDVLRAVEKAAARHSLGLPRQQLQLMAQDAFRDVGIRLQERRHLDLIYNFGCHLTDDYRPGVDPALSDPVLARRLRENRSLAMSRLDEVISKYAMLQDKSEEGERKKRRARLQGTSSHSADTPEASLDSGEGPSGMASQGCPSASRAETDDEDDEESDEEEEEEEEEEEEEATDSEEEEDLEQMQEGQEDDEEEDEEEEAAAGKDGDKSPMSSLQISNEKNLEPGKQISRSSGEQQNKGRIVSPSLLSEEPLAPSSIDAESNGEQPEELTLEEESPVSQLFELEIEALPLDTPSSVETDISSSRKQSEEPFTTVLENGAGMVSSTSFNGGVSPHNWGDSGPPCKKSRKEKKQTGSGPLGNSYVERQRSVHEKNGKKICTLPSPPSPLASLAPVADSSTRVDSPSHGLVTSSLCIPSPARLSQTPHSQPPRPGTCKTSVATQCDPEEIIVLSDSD
UniProt P06748: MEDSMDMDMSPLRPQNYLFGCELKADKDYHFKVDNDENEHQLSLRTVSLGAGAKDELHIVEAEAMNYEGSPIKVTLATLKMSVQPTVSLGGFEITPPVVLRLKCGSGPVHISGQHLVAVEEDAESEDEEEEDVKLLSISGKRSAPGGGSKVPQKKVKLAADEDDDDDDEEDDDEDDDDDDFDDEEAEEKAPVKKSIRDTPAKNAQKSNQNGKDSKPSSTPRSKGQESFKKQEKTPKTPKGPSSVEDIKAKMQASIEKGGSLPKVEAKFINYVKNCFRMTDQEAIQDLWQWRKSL
UniProt Q5UIP0: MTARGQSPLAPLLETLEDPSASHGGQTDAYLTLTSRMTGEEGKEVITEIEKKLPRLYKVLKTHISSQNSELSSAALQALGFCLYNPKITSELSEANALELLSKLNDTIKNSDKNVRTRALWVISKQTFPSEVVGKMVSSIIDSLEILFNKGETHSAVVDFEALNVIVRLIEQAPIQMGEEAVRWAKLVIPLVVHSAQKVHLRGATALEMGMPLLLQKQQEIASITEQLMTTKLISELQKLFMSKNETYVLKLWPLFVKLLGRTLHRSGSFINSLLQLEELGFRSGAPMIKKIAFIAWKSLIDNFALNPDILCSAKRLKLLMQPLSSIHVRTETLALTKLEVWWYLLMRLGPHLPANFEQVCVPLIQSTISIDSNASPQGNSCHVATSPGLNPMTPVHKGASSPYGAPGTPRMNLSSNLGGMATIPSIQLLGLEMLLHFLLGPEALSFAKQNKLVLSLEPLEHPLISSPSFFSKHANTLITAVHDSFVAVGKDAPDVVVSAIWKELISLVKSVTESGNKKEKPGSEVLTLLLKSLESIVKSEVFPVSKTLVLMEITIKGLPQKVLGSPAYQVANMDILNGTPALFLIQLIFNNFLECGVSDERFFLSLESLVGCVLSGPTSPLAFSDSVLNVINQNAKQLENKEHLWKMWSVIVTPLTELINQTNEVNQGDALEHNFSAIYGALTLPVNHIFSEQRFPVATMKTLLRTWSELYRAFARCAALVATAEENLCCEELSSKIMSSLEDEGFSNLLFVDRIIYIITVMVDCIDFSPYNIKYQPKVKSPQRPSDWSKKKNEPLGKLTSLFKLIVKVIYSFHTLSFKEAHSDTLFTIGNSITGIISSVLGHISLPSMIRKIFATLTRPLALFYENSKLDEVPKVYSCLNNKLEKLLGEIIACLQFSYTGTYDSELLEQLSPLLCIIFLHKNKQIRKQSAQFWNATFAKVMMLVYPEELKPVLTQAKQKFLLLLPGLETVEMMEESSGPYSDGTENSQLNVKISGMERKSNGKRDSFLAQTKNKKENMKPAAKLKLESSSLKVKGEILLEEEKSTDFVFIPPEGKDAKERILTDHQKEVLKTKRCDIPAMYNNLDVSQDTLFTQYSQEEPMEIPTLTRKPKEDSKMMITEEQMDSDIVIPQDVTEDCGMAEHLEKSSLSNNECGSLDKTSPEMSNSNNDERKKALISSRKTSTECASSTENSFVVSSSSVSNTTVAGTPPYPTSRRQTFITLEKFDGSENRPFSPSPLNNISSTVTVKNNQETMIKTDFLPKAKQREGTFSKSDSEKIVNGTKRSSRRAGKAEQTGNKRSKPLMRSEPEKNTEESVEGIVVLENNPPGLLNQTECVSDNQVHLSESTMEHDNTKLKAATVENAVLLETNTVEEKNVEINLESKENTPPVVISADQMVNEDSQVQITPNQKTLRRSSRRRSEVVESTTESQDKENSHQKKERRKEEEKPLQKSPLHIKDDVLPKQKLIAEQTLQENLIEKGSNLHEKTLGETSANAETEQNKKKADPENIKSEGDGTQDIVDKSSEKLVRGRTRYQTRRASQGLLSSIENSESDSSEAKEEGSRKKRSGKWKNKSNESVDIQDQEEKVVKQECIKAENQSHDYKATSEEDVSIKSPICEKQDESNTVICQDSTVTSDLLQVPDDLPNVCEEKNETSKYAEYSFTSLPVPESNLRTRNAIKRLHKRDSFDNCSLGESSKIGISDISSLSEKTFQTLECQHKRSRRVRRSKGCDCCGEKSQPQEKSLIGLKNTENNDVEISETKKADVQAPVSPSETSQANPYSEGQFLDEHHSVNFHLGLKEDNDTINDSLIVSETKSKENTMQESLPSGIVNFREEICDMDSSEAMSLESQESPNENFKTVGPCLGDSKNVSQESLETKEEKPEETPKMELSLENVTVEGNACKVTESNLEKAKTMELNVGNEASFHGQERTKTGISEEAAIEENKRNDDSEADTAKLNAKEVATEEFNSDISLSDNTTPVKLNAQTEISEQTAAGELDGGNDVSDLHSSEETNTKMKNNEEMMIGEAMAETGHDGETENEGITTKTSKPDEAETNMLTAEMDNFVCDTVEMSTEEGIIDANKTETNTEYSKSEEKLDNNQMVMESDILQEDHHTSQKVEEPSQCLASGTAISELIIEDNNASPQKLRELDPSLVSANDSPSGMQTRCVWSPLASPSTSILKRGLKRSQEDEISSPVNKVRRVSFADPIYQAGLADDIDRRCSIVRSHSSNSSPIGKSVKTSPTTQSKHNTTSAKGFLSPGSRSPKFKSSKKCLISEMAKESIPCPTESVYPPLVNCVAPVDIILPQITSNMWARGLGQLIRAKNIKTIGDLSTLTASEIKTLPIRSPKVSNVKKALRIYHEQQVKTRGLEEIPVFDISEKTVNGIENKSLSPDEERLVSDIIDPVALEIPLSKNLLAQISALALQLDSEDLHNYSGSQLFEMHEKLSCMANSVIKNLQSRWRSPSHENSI

| binding | Molecule |
| --- | --- |
| binds | Codanin (protein, UniProt Q8IWY9 1-1227) MAAVLESLLREEVSVAAVVRWIARSTQGSEDNAGEAAALSSLRALRKEFVPFLLNFLREQSSRVLPQGPPTPAKTPGASAALPGRPGGPPRGSRGARSQLFPPTEAQSTAAEAPLARRGGRRRGPGPARERGGRGLEEGVSGESLPGAGGRRLRGSGSPSRPSLTLSDPPNLSNLEEFPPVGSVPPGPTGTKPSRRINPTPVSEERSLSKPKTCFTSPPISCVPSSQPSALDTSPWGLGLPPGCRSLQEEREMLRKERSKQLQQSPTPTCPTPELGSPLPSRTGSLTDEPADPARVSSRQRLELVALVYSSCIAENLVPNLFLELFFVFQLLTARRMVTAKDSDPELSPAVLDSLESPLFQSIHDCVFFAVQVLECHFQVLSNLDKGTLKLLAENERLLCFSPALQGRLRAAYEGSVAKVSLVMPPSTQAVSFQPETDNRANFSSDRAFHTFKKQRDVFYEVLREWEDHHEEPGWDFEKGLGSRIRAMMGQLSAACSHSHFVRLFQKQLLQMCQSPGGAGGTVLGEAPDVLSMLGADKLGRLWRLQERLMAPQSSGGPCPPPTFPGCQGFFRDFILSASSFQFNQHLMDSLSLKIQELNGLALPQHEPNDEDGESDVDWQGERKQFAVVLLSLRLLAKFLGFVAFLPYRGPEPPPTGELQDSILALRSQVPPVLDVRTLLQRGLQARRAVLTVPWLVEFLSFADHVVPLLEYYRDIFTLLLRLHRSLVLSQESEGKMCFLNKLLLLAVLGWLFQIPTVPEDLFFLEEGPSYAFEVDTVAPEHGLDNAPVVDQQLLYTCCPYIGELRKLLASWVSGSSGRSGGFMRKITPTTTTSLGAQPSQTSQGLQAQLAQAFFHNQPPSLRRTVEFVAERIGSNCVKHIKATLVADLVRQAESLLQEQLVTQGEEGGDPAQLLEILCSQLCPHGAQALALGREFCQRKSPGAVRALLPEETPAAVLSSAENIAVGLATEKACAWLSANITALIRREVKAAVSRTLRAQGPEPAARGERRGCSRACEHHAPLPSHLISEIKDVLSLAVGPRDPDEGVSPEHLEQLLGQLGQTLRCRQFLCPPAEQHLAKCSVELASLLVADQIPILGPPAQYRLERGQARRLLHMLLSLWKEDFQGPVPLQLLLSPRNVGLLADTRPREWDLLLFLLRELVEKGLMGRMEIEACLGSLHQAQWPGDFAEELATLSNLFLAEPHLPEPQLRACELVQPNRGTVLAQS |
| binds | USP52 (endogenous) (enzyme, UniProt Q504Q3 1-1202) MNFEGLDPGLAEYAPAMHSALDPVLDAHLNPSLLQNVELDPEGVALEALPVQESVHIMEGVYSELHSVVAEVGVPVSVSHFDLHEEMLWVGSHGGHATSFFGPALERYSSFQVNGSDDIRQIQSLENGILFLTKNNLKYMARGGLIIFDYLLDENEDMHSLLLTDSSTLLVGGLQNHIIEIDLNTVQETQKYAVETPGVTIMRQTNRFFFCGHTSGKVSLRDLRTFKVEHEFDAFSGSLSDFDVHGNLLAACGFSSRLTGLACDRFLKVYDLRMMRAITPLQVHVDPAFLRFIPTYTSRLAIISQSGQCQFCEPTGLANPADIFHVNPVGPLLMTFDVSASKQALAFGDSEGCVHLWTDSPEPSFNPYSRETEFALPCLVDSLPPLDWSQDLLPLSLIPVPLTTDTLLSDWPAANSAPAPRRAPPVDAEILRTMKKVGFIGYAPNPRTRLRNQIPYRLKESDSEFDSFSQVTESPVGREEEPHLHMVSKKYRKVTIKYSKLGLEDFDFKHYNKTLFAGLEPHIPNAYCNCMIQVLYFLEPVRCLIQNHLCQKEFCLACELGFLFHMLDLSRGDPCQGNNFLRAFRTIPEASALGLILADSDEASGKGNLARLIQRWNRFILTQLHQDMQELEIPQAYRGAGGSSFCSSGDSVIGQLFSCEMENCSLCRCGSETVRASSTLLFTLSYPDGSKSDKTGKNYDFAQVLKRSICLDQNTQAWCDTCEKYQPTIQTRNIRHLPDILVINCEVNSSKEADFWRMQAEVAFKMAVKKHGGEISKNKEFALADWKELGSPEGVLVCPSIEELKNVWLPFSIRMKMTKNKGLDVCNWTDGDEMQWGPARAEEEHGVYVYDLMATVVHILDSRTGGSLVAHIKVGETYHQRKEGVTHQQWYLFNDFLIEPIDKHEAVQFDMNWKVPAILYYVKRNLNSRYNLNIKNPIEASVLLAEASLARKQRKTHTTFIPLMLNEMPQIGDLVGLDAEFVTLNEEEAELRSDGTKSTIKPSQMSVARITCVRGQGPNEGIPFIDDYISTQEQVVDYLTQYSGIKPGDLDAKISSKHLTTLKSTYLKLRFLIDIGVKFVGHGLQKDFRVINLMVPKDQVLDTVYLFHMPRKRMISLRFLAWYFLDLKIQGETHDSIEDARTALQLYRKYLELSKNGTEPESFHKVLKGLYEKGRKMDWKVPEPEGQTSPKNAAVFSSVLAL |

Continued, molecule first:

| Molecule | binding |
| --- | --- |
| DAXX (from UniProt Q9UER7 1-740) | binds |
| NPM (from UniProt P06748 1-294) | binds |
| RIF1 (from UniProt Q5UIP0 1-2472) | binds |

— publication PMC5876348
